Source: PubChem BioAssay AID1671190 (National Center for Advancing Translational Sciences (NCATS), 2021)
Values joined by “and” are separate entries in the source; they are usually repeats but may differ in a detail not shown here. Equal values may be shown once. Hit rate of the full screen: of about 580,000 compounds, about 6,100 (1.1%) were called active. The shares of active, inactive and inconclusive entries below differ from those in the screen. Calls come from the whole dose curve; as a rule, active = well fitted inhibition curve with a large enough effect; inconclusive = small, poorly fitted or top-dose-only effect, or another doubt; inactive = no such curve, though single readings can be large or run the other way. A potency beside an inconclusive call is a rough fit, not a confirmed value.

Chains of the proteins cited; added tags and fusions are not shown. Lines headed by an entry give the natural chain unless they say otherwise; changes in a name come on top.
UniProt P18054: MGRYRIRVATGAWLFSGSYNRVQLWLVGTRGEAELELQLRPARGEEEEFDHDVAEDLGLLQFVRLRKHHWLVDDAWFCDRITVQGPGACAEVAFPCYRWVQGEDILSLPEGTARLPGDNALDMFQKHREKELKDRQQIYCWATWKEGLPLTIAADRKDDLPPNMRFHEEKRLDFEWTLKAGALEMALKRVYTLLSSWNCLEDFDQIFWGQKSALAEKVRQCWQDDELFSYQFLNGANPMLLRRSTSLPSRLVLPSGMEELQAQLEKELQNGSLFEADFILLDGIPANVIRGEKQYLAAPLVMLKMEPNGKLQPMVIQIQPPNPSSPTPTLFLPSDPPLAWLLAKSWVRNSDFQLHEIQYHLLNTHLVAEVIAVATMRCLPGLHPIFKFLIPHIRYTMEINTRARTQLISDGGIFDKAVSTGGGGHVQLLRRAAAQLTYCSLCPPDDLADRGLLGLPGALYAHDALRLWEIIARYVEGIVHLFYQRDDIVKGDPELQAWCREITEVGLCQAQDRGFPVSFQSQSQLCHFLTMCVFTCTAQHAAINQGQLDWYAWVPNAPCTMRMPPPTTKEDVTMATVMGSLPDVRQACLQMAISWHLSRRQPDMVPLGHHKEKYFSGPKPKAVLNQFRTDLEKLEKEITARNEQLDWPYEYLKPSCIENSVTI

Molecular target: Polyunsaturated fatty acid lipoxygenase ALOX12 (Homo sapiens) (UniProt P18054)
Assay: Primary qHTS assay for inhibitors of human arachidonate 12S-lipoxygenase (ALOX12): Round 2
Settings: purified 12hLO, xylenol orange hydroperoxide absorbance; activity change, negative = inhibition: at 108 µM (top of the series) unless noted
Outline: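 Hydroperoxide product was detected by ferrous iron/xylenol orange as the 573 to 405 nm absorbance ratio. Arachidonic acid at 40 uM (final) was turned over for 30 min at room temperature by 150 nM human 12hLO, pH 7.0 Hepes buffer, after 15 min compound preincubation.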
% is set by controls: 0 for no effect and ±100 for the full control effect; potency is the fitted concentration of half-maximal effect.

SMILES | Potency | activity change, negative = inhibition
O=C(NC(c1ccc(-c2ccccc2)cc1)c1cnccn1)C1CCN(CCCOc2ccccc2)CC1 (centres undefined) | inconclusive: 50.1 µM [inhibitor, partial curve, poor fit] | –
CC1CCCN(S(=O)(=O)c2ccc(NC(=O)c3cc(=O)c4cc(Cl)ccc4o3)cc2)C1 (centres undefined) | inconclusive: 158 µM [inhibitor, partial curve, poor fit] | –
O=C(CN1c2cccc3cccc(c23)S1(=O)=O)N1CCN(c2ccc(F)cc2)CC1 | inactive | –
Cc1nnc(SCC(=O)Nc2ccc(N3CCOCC3)cc2)o1 | inconclusive: 4.47 µM [inhibitor, full curve, poor fit] | –
Nc1ccccc1-n1cccc1 | inconclusive: 112 µM [inhibitor, single point] | –
CCN(CC(=O)NCc1ccc(Cl)cc1)C(=O)COc1cccc(Cl)c1 | inconclusive: 70.8 µM [inhibitor, partial curve, poor fit] | –
CC(=O)Nc1cccc(NC(=O)Nc2ccc(C)c(Cl)c2)c1 | inactive | –
O=C(Cc1ccsc1)Nc1cccc(Cl)c1 | inactive | –
COC(=O)[C@H](C)NC(=O)Nc1cccc(Br)c1 | inconclusive: 44.7 µM [inhibitor, partial curve, poor fit] | –
O=C(O)c1cc(O)c2c(c1)C(=O)c1cccc(O)c1C2=O | inactive and inconclusive: 44.7 µM [inhibitor, partial curve, poor fit] | –
CCOC(=O)c1ccc(Nc2nc3ccccc3nc2NS(=O)(=O)c2ccc(C)c(C)c2)cc1 | inactive | –
CCNC(=O)N1CCCC1c1noc(CCC(=O)NCCC(C)C)n1 (centres undefined) | active: 39.8 µM | –
CC(NC(=O)c1ccccc1Cl)C(=O)NCc1cccs1 (centres undefined) | inactive | –
CC(C)(C)c1cc(/C=C2\NC(=O)NC2=O)cc(C(C)(C)C)c1O | inconclusive: 5.01 µM [inhibitor, partial curve, poor fit] | –
CC(=O)Nc1ccc(CN2CC(Oc3ccc(F)c(F)c3)C2)cc1 | – | inactive: -0.432% [at 6.33 µM]
CCN(C[C@H]1N[C@@](Cc2ccccc2)(C(=O)OC)[C@H]2C(=O)N(C)C(=O)[C@@H]12)S(=O)(=O)c1ccc(OC)cc1 | inconclusive: 31.6 µM [inhibitor, single point] | –
CC(C)CC(=O)N1CCC(N2CCN(C)CC2)CC1 | inconclusive: 0.447 µM [inhibitor, full curve, poor fit] | –
COc1ccccc1Cc1c(C2CCCCC2)nc2ccc(Br)cn12 | inconclusive: 11.2 µM [inhibitor, full curve, poor fit] | –
O=C(c1ccco1)N1CCN(c2ccnc3cc(Cl)ccc23)CC1 | inconclusive: 50.1 µM [inhibitor, partial curve, poor fit] | –
O=C(Nc1ccc(N2CCOCC2)cc1)C1=NN(c2ccccc2)C(=O)CC1 | inconclusive: 50.1 µM [inhibitor, partial curve, poor fit] | –
N#CC(C#N)=C1C=CC=CN1/C(=C\c1ccco1)C(=O)c1ccc(Br)cc1 | inconclusive: 50.1 µM [inhibitor, partial curve, poor fit] | –
CC(C)NC(=O)CN1CCCN(C(=O)c2cc3ccccc3n2C)CC1 | – | inconclusive: -36.6% [inhibitor]
COc1ccccc1Nc1ccc([N+](=O)[O-])cn1 | inconclusive: 63.1 µM [inhibitor, partial curve, poor fit] | –

Record cards, from the list above:
`N#CC(C#N)=C1C=CC=CN1/C(=C\c1ccco1)C(=O)c1ccc(Br)cc1` is listed as Potency: inconclusive: 50.1 µM [inhibitor, partial curve, poor fit]
`COC(=O)[C@H](C)NC(=O)Nc1cccc(Br)c1` is listed as Potency: inconclusive: 44.7 µM [inhibitor, partial curve, poor fit]
`CC(C)CC(=O)N1CCC(N2CCN(C)CC2)CC1` is listed as Potency: inconclusive: 0.447 µM [inhibitor, full curve, poor fit]

The list goes on.

SMILES | Potency | activity change, negative = inhibition
O=C(NCC1CC1)c1csc(N2CCN(c3ccccc3F)CC2)n1 | inactive | –
O=C(NC1CCCCCCC1)c1cc2cccc([N+](=O)[O-])c2[nH]1 | inconclusive: 39.8 µM [inhibitor, partial curve, poor fit] | –
O=C(CCCn1nnc2ccccc2c1=O)N[C@H](C(=O)O)c1ccccc1 | inactive | –
Cc1ccc(C)c(Cn2c(SCC(=O)N(C)Cc3ccccc3)nc3ccccc32)c1 | inconclusive: 7.08 µM [inhibitor, full curve, poor fit] | –
Cc1ccc(C)c(N2CCN(C(=O)CCCCCn3c(=O)[nH]c4ccccc4c3=O)CC2)c1 | inconclusive: 56.2 µM [inhibitor, partial curve, poor fit] | –
CC(=O)Nc1ccc(C(=O)CN2C(=O)NC3(CCCc4ccccc43)C2=O)c(F)c1 (centres undefined) | inconclusive: 31.6 µM [inhibitor, single point] | –
O=C(O)COc1cccc2[nH]ccc12 | inconclusive: 50.1 µM [inhibitor, partial curve, poor fit] | –
N#C/C(=C\c1cccc(Cl)c1)C(=O)c1ccccc1 | inconclusive: 35.5 µM [inhibitor, full curve, poor fit] | –
CC(=O)CS(=O)(=O)c1ccc(Oc2ccc(S(=O)(=O)CC(C)=O)cc2)cc1 | inactive | –
CCCNC(=O)c1nnsc1S(=O)c1ccc(Cl)cc1 (centres undefined) | inactive | –
COc1ccc(-c2nnc3ccc(SCC(=O)Nc4nccs4)nn23)cc1OC | inconclusive: 63.1 µM [inhibitor, partial curve, poor fit] | –
O=C(CCc1ccccc1)N1CCC2(CC1)NC(=O)N(c1cccc(F)c1)N2 | inconclusive: 10 µM [inhibitor, full curve, poor fit] | –
CCCC(=O)N1CCC1(C)C(=O)NS(=O)(=O)c1cc(C)ccc1F (centres undefined) | inconclusive: 44.7 µM [inhibitor, partial curve] | –
CN(C)c1ccc(NC(=O)CSc2ccc(F)cc2)cc1 | inconclusive: 50.1 µM [inhibitor, partial curve, poor fit] | –
COC(=O)c1ccc(CN2C(=O)[C@@H]3C[C@@H](O)CN3C3(CN(Cc4cccc(OC)c4)C3)C2=O)cc1 | inactive | –
CCC(C)Nc1nc(C)nc2c1oc1ccccc12 (centres undefined) | inconclusive: 35.5 µM [inhibitor, partial curve, poor fit] | –
CCn1c(-c2ccc3ncccc3c2)n[nH]c1=S | inconclusive: 50.1 µM [inhibitor, partial curve, poor fit] | –
COc1ccccc1-c1nc2n(n1)C(c1cccs1)C(C(=O)Nc1cccnc1)=C(C)N2 (centres undefined) | inconclusive: 50.1 µM [inhibitor, partial curve, poor fit] | –
COc1ccc(-c2cc(C(=O)Nc3ccc4c(c3)OCO4)on2)cc1OC | inactive | –
Cc1c2c(nc3ccccc13)OCC2 | inactive | –
COc1ccc(Cl)cc1NC(=O)CC1CCCN(c2cnn(C)c(=O)c2)C1 (centres undefined) | inconclusive: 14.1 µM [inhibitor, full curve, poor fit] | –
CN1C(=O)[C@H]2[C@@H](c3ccccc3)N[C@]3(CCCN(Cc4ccc(F)cc4)C3=O)[C@H]2C1=O | inconclusive: 25.1 µM [inhibitor, partial curve] | –
COc1ccc2c(c1)Cc1sc(NC(=O)c3cccc(F)c3)nc1-2 | inactive | –

SMILES | Potency | activity change, negative = inhibition
O=C(COC(=O)c1cccc(F)c1)Nc1cccnc1Cl | inactive | –
COc1ccccc1C(=O)Nc1cccc(N2CCC(NCc3cnn(-c4ccccc4)n3)CC2)c1 | inconclusive: 89.1 µM [inhibitor, single point] | –
S=C(NCCSc1ccc(Cl)cc1)NC1CC1 | inconclusive: 44.7 µM [inhibitor, partial curve, poor fit] | –
Cc1ccc(NC(=O)NCC2CCN(Cc3cccc(Cl)c3)CC2)cc1Cl | inconclusive: 50.1 µM [inhibitor, partial curve, poor fit] | –
CC(C)(C)c1ccc(C2CC(=O)c3cnc(NCc4ccccc4)nc3C2)cc1 (centres undefined) | inactive | –
CC1CC(C)CN(C(=O)CSc2nc(Cc3cccs3)nc3ccccc23)C1 (centres undefined) | inactive | –
COc1ccc(NC(=O)C2=NO[C@@H]3CN(Cc4ccc(F)cc4)C[C@H]23)cn1 | inactive | –
CCCCN1CC[C@H]2C=CC[C@@H](C(=O)Nc3ccccc3)[C@H]2C1=O | inactive | –
COC(=O)[C@@]1(C)[C@H]2C(=O)N(Cc3ccccc3)C(=O)[C@H]2[C@H]2CN=C(SCc3ccc(C)cc3)N21 | active: 39.8 µM | –
CCN(CC)c1cc(CCC(=O)N2CCC(COC)CC2)ccn1 | inconclusive: 31.6 µM [inhibitor, partial curve, poor fit] | –
Cc1cccc(-n2c(N)c(C(=O)NCCN3CCOCC3)c3nc4ccccc4nc32)c1 | inactive | –
CCCc1nc(C(=O)NC(CC)c2ccc(S(C)(=O)=O)cc2)cs1 (centres undefined) | inconclusive: 3.55 µM [inhibitor, full curve, poor fit] | –
CCC(C)(C)c1nnc(NC(=O)Cc2ccccc2)s1 | inactive | –
CCCCCC(O)C=CC1C(O)CC(O)C1CC=CCCCC(=O)O (centres undefined) | inactive | –
CN(C)c1ccc(-c2csc(C(C)(O)c3ccccc3)n2)cc1 (centres undefined) | inconclusive: 39.8 µM [inhibitor, partial curve] | –
COc1cccc(CNC(=O)CSc2nc3ccccc3nc2Cc2ccc(C)cc2)c1OC | inactive | –
CCNC(=O)C(C)NC(=O)c1cc2ccc(OC)cc2nc1C (centres undefined) | inactive | –
O=C1COc2ccc(-c3ccc4c(c3)OCO4)nc2CN1Cc1ccc(F)cc1 | inconclusive: 8.91 µM [inhibitor, full curve, poor fit] | –
COc1cccc(C2N(c3ccc(Cl)c(Cl)c3)C(=O)C3CCCN32)c1OC (centres undefined) | inconclusive: 79.4 µM [inhibitor, partial curve, poor fit] | –
CN(CC1CCOCC1)C(=O)C1CCC1 | inactive | –
CN(C)c1cc(Cl)c2nonc2c1N | active: 39.8 µM | –
S=C(Nc1ccc(Nc2ccccc2)cc1)NN1CCOCC1 | inactive | –
CCOC(=O)CNC(=O)c1cc2c(=O)n3cccc(C)c3nc2s1 | inconclusive: 126 µM [inhibitor, partial curve, poor fit] | –
